Assay results: doi:10.1101/790667 (bioRxiv, 2019)

Sequences of proteins named here, by UniProt entry; tags and fusion partners are left off. A change or cut given only in a name is not applied to a line headed by its entry.
UniProt Q13009: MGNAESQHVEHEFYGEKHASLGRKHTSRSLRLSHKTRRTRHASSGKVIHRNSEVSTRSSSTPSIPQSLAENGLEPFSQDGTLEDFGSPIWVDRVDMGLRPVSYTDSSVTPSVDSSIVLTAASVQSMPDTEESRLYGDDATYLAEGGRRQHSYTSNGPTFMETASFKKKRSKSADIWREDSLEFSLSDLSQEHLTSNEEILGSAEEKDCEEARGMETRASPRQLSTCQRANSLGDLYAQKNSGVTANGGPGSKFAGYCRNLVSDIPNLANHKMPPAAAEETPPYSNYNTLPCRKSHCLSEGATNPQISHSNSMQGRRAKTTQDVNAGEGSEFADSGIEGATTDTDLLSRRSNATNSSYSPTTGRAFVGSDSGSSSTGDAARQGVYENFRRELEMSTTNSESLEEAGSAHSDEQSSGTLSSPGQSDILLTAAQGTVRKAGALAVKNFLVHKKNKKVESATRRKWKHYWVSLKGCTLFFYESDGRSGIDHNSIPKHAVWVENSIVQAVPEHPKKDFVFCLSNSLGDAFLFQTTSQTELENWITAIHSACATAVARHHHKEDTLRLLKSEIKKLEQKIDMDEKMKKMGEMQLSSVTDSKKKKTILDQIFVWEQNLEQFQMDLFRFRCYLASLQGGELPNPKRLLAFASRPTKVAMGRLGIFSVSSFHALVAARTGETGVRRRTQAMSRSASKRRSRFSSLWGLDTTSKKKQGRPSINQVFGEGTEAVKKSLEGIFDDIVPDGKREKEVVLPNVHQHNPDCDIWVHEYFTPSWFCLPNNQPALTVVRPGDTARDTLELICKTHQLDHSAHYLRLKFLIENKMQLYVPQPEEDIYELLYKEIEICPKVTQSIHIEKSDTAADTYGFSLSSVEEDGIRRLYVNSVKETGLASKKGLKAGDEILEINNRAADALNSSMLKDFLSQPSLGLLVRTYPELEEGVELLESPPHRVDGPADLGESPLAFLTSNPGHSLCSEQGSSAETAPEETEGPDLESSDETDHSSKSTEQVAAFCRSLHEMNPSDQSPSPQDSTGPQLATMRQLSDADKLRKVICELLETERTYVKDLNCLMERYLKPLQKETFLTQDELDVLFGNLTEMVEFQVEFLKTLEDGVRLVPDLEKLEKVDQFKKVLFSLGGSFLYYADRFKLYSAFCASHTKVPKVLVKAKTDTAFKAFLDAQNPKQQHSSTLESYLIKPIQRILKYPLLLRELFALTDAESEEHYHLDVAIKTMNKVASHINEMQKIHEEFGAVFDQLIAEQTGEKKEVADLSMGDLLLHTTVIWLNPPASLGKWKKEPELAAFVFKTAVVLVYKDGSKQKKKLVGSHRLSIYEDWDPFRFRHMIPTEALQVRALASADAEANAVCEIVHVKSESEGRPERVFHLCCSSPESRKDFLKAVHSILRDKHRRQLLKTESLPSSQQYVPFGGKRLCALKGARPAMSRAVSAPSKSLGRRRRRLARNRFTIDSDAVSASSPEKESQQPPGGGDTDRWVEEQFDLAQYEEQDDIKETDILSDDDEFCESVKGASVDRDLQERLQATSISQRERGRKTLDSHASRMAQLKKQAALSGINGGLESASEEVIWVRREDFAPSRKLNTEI

Tests used:
Assay in all cases: differential scanning fluorimetry
[1] = target: T1, Caspr4 peptide (residues 1,301-1,308)
T1 sequence (peptide, dansylated at the N-terminus; free carboxyl at the C-terminus): ENQKEYFF

[2] = target: T2, Neurexin peptide (residues 1,470-1,477)
T2 sequence (peptide, dansylated at the N-terminus; free carboxyl at the C-terminus): NKDKEYYV

[3] = target: T3, Syndecan1 peptide (residues 303-310)
T3 sequence (peptide, dansylated at the N-terminus; free carboxyl at the C-terminus): TKQEEFYA

Measured: binding

Tiam1 PDZ domain (from UniProt Q13009) (domain or fragment)
binds: all assays above

No constants are given. Whether binding was seen depends on the method and setting. Binding calls can cover weak binding; strength is not graded here.
